Data from PubChem BioAssay AID326 (DTP/NCI, 2004).
The list shows only some results of the screen, not a fair sample: it covers a few groups of compounds. Not every dose and run of a compound is shown. T/C is the treated group as % of the vehicle group. For survival time, the PubChem record calls one and a half times the control and up active, and a quarter to a half above the control has no call in these data; cut-offs in other NCI protocols can differ. Schedules are NCI's codes, read here as Q, the interval in days (D) or hours (H), X, the number of doses. Some entries show no survivor count and are marked so; the dose need not have been tolerated.

Tested on: CD2F1 mice, P388/DHAQ leukemia ip, median survival T/C
Test: NCI In Vivo Anticancer Drug Screen. Data for tumor model P388 Leukemia resistant to Dihydroxy Anthracenedione; NSC 299195 (intraperitoneal) in CD2F1 (CDF1) mice
Conditions: T/C endpoint: median survival time, schedule: Q04DX003 (ip), vehicle: saline, higher T/C = longer survival
Description: The antitumor activity of compounds was measured in mice bearing transplantable tumors. Survival or tumor size were measured and the results are expressed as the measurement made in the treated group (T) divided by the measurement made in the vehicle treated control group (C). The tumor model used in this assay is P388 Leukemia resistant to Dihydroxy Anthracenedione; NSC 299195 (intraperitoneal) in CD2F1 (CDF1) mice

CC(=O)OCC12CCC(C)=CC1OC1C(O)C(OC(C)=O)C2(C)C12CO2 (configuration not stated)
T/C (dose: 3.24 mg/kg/injection): 126 % of control [survivor count not shown] | T/C (dose: 5.4 mg/kg/injection): 135 % of control [survivor count not shown]
